According to the supplement of paper PMC6690932:
Counter-ions that a name gives are not always drawn. ± gives the standard deviation of the averaged measurements. The list shows a part of the results. Many values rest on one well or one pass, so single values are uncertain.

test system: HeLa; assay: lysosomal-METRIQ red/green fluorescence ratio relative to DMSO (ratio to DMSO); higher = higher lysosomal activity / lysosomal biogenesis; settings: 10 µM; 12 h

Structure (SMILES) | lysosomal-METRIQ red/green fluorescence ratio
CN(C)CCCCC(=O)Nc1ccc(NC(=S)NC(=O)c2ccc(C(C)(C)C)cc2)cc1 [Tenovin-6] | 0.818
O=C(Cc1ccccc1)Nc1c2c(nc3ccccc13)N(Cc1ccccc1)CC2 | 1.04
Cc1cnc(-c2cnc(NCCNc3ccc(C#N)cn3)nc2-c2ccc(Cl)cc2Cl)[nH]1 | 0.545
Cc1ccc(Nc2nccc(N(C)c3ccc4c(C)n(C)nc4c3)n2)cc1S(N)(=O)=O [pazopanib] | 0.818
C1=Cc2nc1cc1nc(c(-c3ccccc3)c3ccc(cc4ccc([nH]4)c2-c2ccccc2)[nH]3)C=C1 | 0.409
CNC(=O)[C@H](Cc1c[nH]c2ccccc12)NC(=O)[C@@H](CC(=O)NO)CC(C)C | 1
NC(=O)c1cccc2cn(-c3ccc([C@@H]4CCCNC4)cc3)nc12 [MK-4827 (Niraparib)] | 0.955
NC(=O)Nc1sc(-c2ccccc2)cc1C(N)=O [IKK-2 inhibitor VI] | 1.31
N#C/C(=C(/N)Sc1ccccc1N)c1cccc(C(O)c2ccncc2)c1 (stereo unspecified) [MEK inhibitor I] | 0.75
COc1ccc(CCN(C)CCCC(C#N)(c2ccc(OC)c(OC)c2)C(C)C)cc1OC (stereo unspecified) [Verapamil] | 0.92
O=C(O)c1cc(NCc2cc(O)ccc2O)ccc1O [Lavendustin C] | 1.05
CN(C)CC[C@H](CSc1ccccc1)Nc1ccc(S(=O)(=O)NC(=O)c2ccc(N3CCN(Cc4ccccc4-c4ccc(Cl)cc4)CC3)cc2)cc1[N+](=O)[O-] | 0.818
O=C(CCCCCN1C(=O)c2cccc3cccc(c23)C1=O)NO [Scriptaid] | 0.6
CO[C@@]12[C@H](COC(N)=O)C3=C(C(=O)C(C)=C(N)C3=O)N1C[C@@H]1N[C@@H]12 [Mitomycin C] | 1.03
COc1cc(/C=C(\C#N)C(N)=O)cc(CSc2nc3ccccc3s2)c1O | 1.02 ± 0.12
CCN1/C(=C/C(C)=O)Sc2ccc(OC)cc21 | 1.18
O=C1CCC(N2C(=O)c3ccccc3C2=O)C(=O)N1 (stereo unspecified) [thalidomide] | 0.818
CS(=O)(=O)c1ccc(C(=O)Nc2ccc(Cl)c(-c3ccccn3)c2)c(Cl)c1 [Vismodegib] | 1

Arranged by formula weight (smallest number first): 3 of the compounds above
Structure (SMILES) | lysosomal-METRIQ red/green fluorescence ratio
O=C(CCCCCN1C(=O)c2cccc3cccc(c23)C1=O)NO [Scriptaid] | 0.6
CS(=O)(=O)c1ccc(C(=O)Nc2ccc(Cl)c(-c3ccccn3)c2)c(Cl)c1 [Vismodegib] | 1
C1=Cc2nc1cc1nc(c(-c3ccccc3)c3ccc(cc4ccc([nH]4)c2-c2ccccc2)[nH]3)C=C1 | 0.409

More entries

Structure (SMILES) | lysosomal-METRIQ red/green fluorescence ratio
O=C(CCCCCCC(=O)Nc1ccccc1)NO [vorinostat] | 0.455
O=C(c1cc(Cc2n[nH]c(=O)c3ccccc23)ccc1F)N1CCN(C(=O)C2CC2)CC1 [Olaparib] | 0.818
CC[C@@]1(O)C[C@H](O[C@H]2C[C@H](N(C)C)[C@H](O[C@H]3C[C@H](O)[C@H](O[C@H]4CCC(=O)[C@H](C)O4)[C@H](C)O3)[C@H](C)O2)c2c(cc3c(c2O)C(=O)c2c(O)cccc2C3=O)[C@H]1C(=O)OC [Aclarubicin] | 1.26
Cn1nnc2c(C(N)=O)ncn2c1=O [temozolomide] | 0.818
CC1(C)CCC(C)(C)c2cc(NC(=O)c3ccc(C(=O)O)cc3)ccc21 [tamibarotene] | 0.773
COC(=O)C1=C(C)NC(C)=C(C(=O)OC)C1c1ccccc1[N+](=O)[O-] [Nifedipine] | 1.08
CC/C(=C(\c1ccccc1)c1ccc(OCCN(C)C)cc1)c1ccccc1 [Tamoxifen, citrate] | 1
N#C/C(=C\c1ccc2oc(=O)[nH]c2c1)C(=O)c1ccc(O)c(O)c1 | 0.938
Cc1nc(Nc2ncc(C(=O)Nc3c(C)cccc3Cl)s2)cc(N2CCN(CCO)CC2)n1 [dasatinib] | 1.05
Cc1ccc2nc(NCCN)c3ncc(C)n3c2c1 | 1.75
COc1cc2nc(N3CCCN(C)CC3)nc(NC3CCN(Cc4ccccc4)CC3)c2cc1OC | 0.636
Cc1c2oc3c(C)ccc(C(=O)N[C@@H]4C(=O)N[C@H](C(C)C)C(=O)N5CCC[C@H]5C(=O)N(C)CC(=O)N(C)[C@@H](C(C)C)C(=O)O[C@@H]4C)c3nc-2c(C(=O)N[C@@H]2C(=O)N[C@H](C(C)C)C(=O)N3CCC[C@H]3C(=O)N(C)CC(=O)N(C)[C@@H](C(C)C)C(=O)O[C@@H]2C)c(N)c1=O [Actinomycin D] | 1.19
Cc1ccc(-c2cn3c4c(sc3n2)CCCC4)cc1 [Pifithrin-a (cyclic)] | 1.08
Oc1nc(-c2ccc(C(F)(F)F)cc2)nc2c1CSCC2 | 0.909
Cc1nc2sccn2c(=O)c1CCN1CCC(=C(c2ccccc2)c2ccc(F)cc2)CC1 | 1.04
COC(=O)[C@H](CC(C)C)NC(=O)c1ccc(NC[C@@H](N)CS)cc1-c1ccccc1 | 1.1
Cc1cc([N+](=O)[O-])ccc1NS(=O)(=O)c1cc(Cl)ccc1Cl | 1.09
Nc1ncn([C@@H]2O[C@H](CO)[C@@H](O)[C@H]2O)c(=O)n1 [Azacytidine] | 1.35
